{"source": "paper PMC7725503", "target": "T1, PMTmApple", "T1 sequence": "MGCFFSKRRKADKES", "assay": "fluorescence cross-correlation spectroscopy (quasi-PIE FCCS); live embryos from the cross of the Wnt3EGFP and PMTmApple transgenic lines; negative control", "note": "Results are given in words; binding and its absence hold for the method and conditions named."}
{"substance": "Wnt3EGFP (zebrafish) (ligand)", "values": [{"measurement": "binding", "result": "no binding"}]}
